# Several values for one entry are separate records, joined by “and”; a condition that tells them apart may be missing. Equal entries are not always repeated. Inconclusive results, whose numbers are uncertain, are shown with a selection of clear calls. For part of these data: A potency beside an inconclusive call is a rough fit, not a confirmed value. Where a structure was tested more than once in an assay, its records may differ in their call. Activity calls are given as the source filed them. Rule for the calls: active = hit-call score of the fitted dose curve at least 0.9, where 1 is the maximum; inconclusive = response in the unintended direction; inactive = score below 0.9.
# Protein sequences, listed by entry. Tags and fused reporters are not part of them. Lines headed by an entry give the natural chain unless they say otherwise; changes in a name come on top.
# UniProt Q9UNQ0: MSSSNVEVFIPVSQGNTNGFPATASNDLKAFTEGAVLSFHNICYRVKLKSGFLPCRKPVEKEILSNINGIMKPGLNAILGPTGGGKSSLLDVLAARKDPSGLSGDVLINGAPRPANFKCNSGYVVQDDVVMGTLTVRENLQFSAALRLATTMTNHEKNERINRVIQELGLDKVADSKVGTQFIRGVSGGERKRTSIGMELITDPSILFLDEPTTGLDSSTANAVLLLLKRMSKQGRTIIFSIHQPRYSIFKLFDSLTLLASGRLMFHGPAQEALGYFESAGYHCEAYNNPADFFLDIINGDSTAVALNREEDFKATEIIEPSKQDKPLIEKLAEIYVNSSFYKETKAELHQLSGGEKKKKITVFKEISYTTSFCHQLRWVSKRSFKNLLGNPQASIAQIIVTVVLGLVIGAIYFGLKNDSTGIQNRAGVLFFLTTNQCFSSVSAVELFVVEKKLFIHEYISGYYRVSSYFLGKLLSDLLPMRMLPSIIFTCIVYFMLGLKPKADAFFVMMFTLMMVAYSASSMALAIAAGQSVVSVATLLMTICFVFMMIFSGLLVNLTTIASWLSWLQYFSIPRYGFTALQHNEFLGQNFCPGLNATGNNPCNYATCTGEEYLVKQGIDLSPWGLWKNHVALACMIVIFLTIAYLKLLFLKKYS
# UniProt P10275: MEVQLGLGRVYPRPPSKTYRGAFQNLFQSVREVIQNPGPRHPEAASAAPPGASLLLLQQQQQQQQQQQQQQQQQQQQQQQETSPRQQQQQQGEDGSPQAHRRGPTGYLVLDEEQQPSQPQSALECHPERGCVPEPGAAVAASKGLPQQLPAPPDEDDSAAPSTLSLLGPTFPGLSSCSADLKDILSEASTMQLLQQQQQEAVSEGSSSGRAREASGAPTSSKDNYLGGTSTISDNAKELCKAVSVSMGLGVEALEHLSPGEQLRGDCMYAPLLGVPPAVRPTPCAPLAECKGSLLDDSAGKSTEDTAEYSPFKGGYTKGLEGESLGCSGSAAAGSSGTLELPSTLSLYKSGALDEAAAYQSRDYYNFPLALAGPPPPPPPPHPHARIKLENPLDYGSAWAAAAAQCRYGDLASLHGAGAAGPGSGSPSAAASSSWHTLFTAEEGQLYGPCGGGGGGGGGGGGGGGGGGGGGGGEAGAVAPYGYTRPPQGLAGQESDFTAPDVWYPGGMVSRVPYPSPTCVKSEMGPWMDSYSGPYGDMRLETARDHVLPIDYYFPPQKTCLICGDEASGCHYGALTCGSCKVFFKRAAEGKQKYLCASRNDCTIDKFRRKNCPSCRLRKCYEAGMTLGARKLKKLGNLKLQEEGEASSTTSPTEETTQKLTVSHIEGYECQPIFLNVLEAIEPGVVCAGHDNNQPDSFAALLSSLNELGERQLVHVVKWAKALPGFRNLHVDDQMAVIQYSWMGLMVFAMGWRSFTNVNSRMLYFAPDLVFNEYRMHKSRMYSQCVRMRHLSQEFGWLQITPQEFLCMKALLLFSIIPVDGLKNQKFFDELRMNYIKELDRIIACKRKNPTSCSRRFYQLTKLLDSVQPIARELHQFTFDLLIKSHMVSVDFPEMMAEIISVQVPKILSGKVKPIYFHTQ
# UniProt Q96RI1: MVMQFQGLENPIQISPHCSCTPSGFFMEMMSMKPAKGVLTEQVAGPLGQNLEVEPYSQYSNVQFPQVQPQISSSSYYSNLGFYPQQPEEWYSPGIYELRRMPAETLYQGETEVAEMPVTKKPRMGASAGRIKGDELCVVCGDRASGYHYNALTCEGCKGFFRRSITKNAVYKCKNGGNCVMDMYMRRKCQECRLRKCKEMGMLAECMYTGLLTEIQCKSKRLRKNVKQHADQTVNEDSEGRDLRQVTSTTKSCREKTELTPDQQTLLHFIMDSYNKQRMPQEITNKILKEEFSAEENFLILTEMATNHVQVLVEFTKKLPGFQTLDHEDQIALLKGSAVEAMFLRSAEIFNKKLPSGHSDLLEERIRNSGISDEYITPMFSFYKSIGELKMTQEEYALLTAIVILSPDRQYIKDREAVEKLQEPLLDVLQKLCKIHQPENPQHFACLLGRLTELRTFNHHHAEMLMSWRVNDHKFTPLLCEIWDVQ
# Tests used:
# [1] = Tanguay_ZF_120hpf_SOMI_legacy: (Legacy) Oregon State University Tanguay Lab 120 Hour Post-fertilization zebrafish Assay for Somite Malformation (AID 2283647)
# Outline: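 Somitogenesis defects are recorded as binary calls in whole larvae at 120 hpf after continuous static chemical exposure starting at 6 hpf in dechorionated 5D embryos. DMSO serves as negative control and baseline.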
# [2] = Tanguay_ZF_120hpf_TRUN_legacy: (Legacy) Oregon State University Tanguay Lab 120 Hour Post-fertilization zebrafish Assay for Truncated Body (AID 2283655)
# Outline: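 Single dechorionated zebrafish embryos received test chemical from 6 hpf in 0.64% DMSO, kept at 28C. At 120 hpf, brightfield inspection noted any truncated body.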
# [3] = read-out: Broad substrate specificity ATP-binding cassette transporter ABCG2 (Homo sapiens) (UniProt Q9UNQ0); assay: CLD_ABCG2_6hr: CellzDirect (CLD) Gene Expression Assay for ABC Transporter (ABCG2) at 6 hours (AID 2283660)
# Outline: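 ABCG2 mRNA induction measured by qNPA chemiluminescence in human primary hepatocyte cultures, 6 h post-dose. Chemicals tested at several concentrations against a 0.2% DMSO vehicle; positive-direction fit relative to DMSO.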
# [4] = molecular target: Androgen receptor (Homo sapiens) (UniProt P10275); assay: ATG_AR_TRANS: Attagene TRANS-FACTORIAL HepG2 Assay for human Androgen Receptor (AR) (AID 2282973); settings: HepG2 Attagene TRANS-FACTORIAL AR reporter transcription
# Outline: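 Chimeric nuclear receptor–Gal4 activity was assessed in human HepG2 hepatocytes after 24 h chemical dosing. Induced reporter mRNA was detected via labelled RT-PCR fragments on capillary electrophoresis, and gain of signal was analysed against DMSO.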
# [5] = Tanguay_ZF_120hpf_NC_legacy: (Legacy) Oregon State University Tanguay Lab 120 Hour Post-fertilization zebrafish Assay for Notochord and Tail Malformation (AID 2283656)
# Outline: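 Binary scoring of notochord distortion by brightfield microscopy; embryos dying were not scored. Wild-type Tropical 5D embryos, chorion removed, exposed singly and statically from 6 to 120 hpf, 28C, sealed, 0.64% DMSO.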
# [6] = read-out: ABC Transporter (ABCB1), ABCB1 (gene 5243); assay: CLD_ABCB1_6hr: CellzDirect (CLD) Gene Expression Assay for ABC Transporter (ABCB1) at 6 hours (AID 2283659);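 for outcome: hits raise ABCB1 transcript above the DMSO vehicle baseline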
# Outline: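 ABCB1 transcript measured by quantitative nuclease protection assay, chemiluminescent read-out, 6 h after dosing human hepatocyte cultures (0.2% DMSO vehicle, daily redosing). Activity fitted as increase over DMSO baseline; cytotoxicity flagged by phase-contrast morphology.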
# [7] = CLD_ACTIN_48hr: CellzDirect (CLD) Gene Expression Assay for Baseline Control (Actin) at 48 hours (AID 2283702)
# Outline: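 Background-control actin mRNA read by qNPA chemiluminescence at 48 h. Human hepatocyte cultures from two donors received fresh multi-concentration chemical doses daily for two days; 0.2% DMSO served as vehicle baseline.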
# [8] = read-out: xenobiotic metabolism (CYP1A1), CYP1A1 (gene 1543); assay: CLD_CYP1A1_48hr: CellzDirect (CLD) Gene Expression Assay for xenobiotic metabolism (CYP1A1) at 48 hours (AID 2283705)
# Outline: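 CYP1A1 transcript measured by quantitative nuclease protection (chemiluminescent) 48 h after two daily treatments of human hepatocyte cultures, versus 0.2% DMSO. Morphology-based cytotoxicity flags accompany data; two donor preparations used.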
# [9] = molecular target: AR (gene 367) (UniProt P10275); assay: ACEA_AR_agonist_80hr: ACEA Biosciences xCELLigence Real-Time Cell Analysis on Androgen Receptor Agonism for Proliferation (AID 2283783);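 note: hits increase impedance growth signal above DMSO baseline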
# Outline: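 Eight concentrations, 1:4 serial dilution from a 100 uM final top, in biological duplicate. Impedance-based real-time growth of 22Rv1 cells after overnight baseline, recorded hourly and read at 80 hours. Controls: testosterone, MG132, assay media.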
# [10] = molecular target: Nucleoli Translocation, AR (gene 367) (UniProt P10275); assay: UPITT_HCI_U2OS_AR_TIF2_Nucleoli_Agonist: University of Pittsburgh U2OS Androgen Receptor-Transcriptional Intermediary Factor 2 (AR-TIF2) Agonism High Content Imaging Assay for Nucleoli Translocation (AID 2283998)
# Outline: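 High-content images quantify nucleolar accumulation of RFP-fused AR in cells also expressing GFP-TIF2; the endpoint is fitted as signal gain versus DMSO controls across final concentrations of 0.195 to 50 uM.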
# [11] = molecular target: Bile acid receptor (Homo sapiens) (UniProt Q96RI1); assay: OT_FXR_FXRSRC1_0480: Odyssey Thera (OT) 8-hour HEK293T Protein-Complementation Assay for Farnesoid X receptor/SRC-1 Co-activator (AID 2283383)
# Outline: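 Binding of FXR to coactivator SRC-1 was read as fluorescence from a reconstituted split reporter in HEK293T cells, 8 h after chemical addition. Only increases in signal versus DMSO were fit.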
# [12] = Tanguay_ZF_120hpf_CIRC_legacy: (Legacy) Oregon State University Tanguay Lab 120 Hour Post-fertilization zebrafish Assay for Circulatory Malformation (AID 2283651)
# Outline: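 Binary circulatory malformation call at 120 hpf by brightfield imaging of zebrafish larvae; chorion removed at 4 hpf, static exposure from 6 hpf in sealed dark plates at 28C, final DMSO 0.64%; non-mortality endpoints skipped if embryo died.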
# [13] = test system: turtle Androgen Receptor (AR), gene 101947425; assay: ATG_trAR_XSP2: Attagene TRANS-FACTORIAL Multi-Species (XSP2) HepG2 Assay for turtle Androgen Receptor (AR) (AID 2283815);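 note: reporter mRNA from a Gal4 chimera of turtle AR measured by RT-PCR; potency for gain of reporter signal meaning activation above DMSO baseline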
# Outline: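 Reporter transcripts were quantified via RT-PCR and capillary electrophoresis and fitted upward against DMSO. Transiently transfected human HepG2 cells carrying NR-Gal4 chimeras were exposed 24 h, with 3 nM 6-alpha-fluorotestosterone plus 1.5 nM norgestrel added.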
# [14] = Tanguay_ZF_120hpf_AXIS_legacy: (Legacy) Oregon State University Tanguay Lab 120 Hour Post-fertilization zebrafish Assay for Body Axis Malformation (AID 2283635);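 note: potency for an increased fraction of larvae scored with body axis malformation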
# Outline: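 Each dechorionated embryo was exposed alone from 6 hpf, with DMSO at 0.64% (vol/vol) and trimethyltin chloride 5 uM as positive control. Axis malformation was recorded at 120 hpf unless the embryo had died.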
# [15] = read-out: ABC Transporter (ABCB1), ABCB1 (gene 5243); assay: CLD_ABCB1_24hr: CellzDirect (CLD) Gene Expression Assay for ABC Transporter (ABCB1) at 24 hours (AID 2283684);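 for AC50: potency for increase in ABCB1 mRNA relative to DMSO vehicle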
# Outline: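 ABCB1 mRNA induction versus 0.2% DMSO vehicle was read by qNPA chemiluminescence at 24 h. Cultured human hepatocytes from two donor preparations received daily fresh dosing, and phase-contrast cytotoxicity calls were annotated alongside the data.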
# [16] = read-out: sulfotransferase (SULT2A), SULT2A1 (gene 6822); assay: CLD_SULT2A_48hr: CellzDirect (CLD) Gene Expression Assay for sulfotransferase (SULT2A) at 48 hours (AID 2283710);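 note: hits raise SULT2A1 transcript above the 0.2% DMSO vehicle baseline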
# Outline: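 SULT2A1 transcript measured by qNPA chemiluminescence in human primary hepatocyte cultures after 48 h, with fresh dosing solutions on two consecutive days; gain-of-signal fitting against 0.2% DMSO vehicle; cytotoxicity annotated from phase-contrast morphology.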
# [17] = molecular target: Bile acid receptor (Homo sapiens) (UniProt Q96RI1); assay: OT_FXR_FXRSRC1_1440: Odyssey Thera (OT) 24-hour HEK293T Protein-Complementation Assay for Farnesoid X receptor/SRC-1 Co-activator (AID 2283384)
# Outline: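 Protein-fragment complementation: FXR and SRC-1 fused to reporter fragments that reassemble on interaction, read by fluorescence intensity. Human HEK293T cells measured 24 h post-dose; positive-direction fit versus DMSO.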
# [18] = read-out: xenobiotic metabolism (CYP2C9), CYP2C9 (gene 1559); assay: CLD_CYP2C9_6hr: CellzDirect (CLD) Gene Expression Assay for xenobiotic metabolism (CYP2C9) at 6 hours (AID 2283664)
# Outline: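 Readout is qNPA chemiluminescence of CYP2C9 mRNA, taken 6 h after dosing of cultured human liver primary cells at several concentrations. Activity is the increase over 0.2% DMSO baseline. Morphology-based cytotoxicity flagged yes/no.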
# [19] = read-out: ABC Transporter (ABCB1), ABCB1 (gene 5243); assay: CLD_ABCB1_48hr: CellzDirect (CLD) Gene Expression Assay for ABC Transporter (ABCB1) at 48 hours (AID 2283695)
# Outline: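 ABCB1 mRNA was measured by quantitative nuclease protection assay (chemiluminescence) 48 h after dosing. Human hepatocyte cultures from two separate donors received fresh dosing solutions daily for two days, with 0.2% DMSO as vehicle. Positive-direction fit against DMSO.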
compound,measurement,setting,value
CCCCN(CC)c1c([N+](=O)[O-])cc(C(F)(F)F)cc1[N+](=O)[O-],AC50,[1],inconclusive: 153 µM
same,AC50,[2],inconclusive: 103 µM
same,outcome,[3],inactive
Clc1ccc(C(Cl)(Cl)Cl)cn1,AC50,[4],inconclusive: 100 µM
N#CN=C1SCCN1Cc1ccc(Cl)nc1,AC50,[5],inconclusive: 1.84 µM
same,outcome,[6],inactive
same,AC50,[7],inconclusive: 20 µM
same,AC50,[8],inconclusive: 20 µM
CC1(C)[C@H](C(=O)O[C@H](C#N)c2cccc(Oc3ccccc3)c2)[C@@H]1C=C(Br)Br,AC50,[9],inconclusive: 33.4 µM and inconclusive: 29.4 µM
same,AC50,[10],inconclusive: 50 µM
O=P(Oc1ccccc1)(Oc1ccccc1)Oc1ccccc1,AC50,[11],active: 11.9 µM
same,outcome,[1],inactive
same,AC50,[12],inconclusive: 10.6 µM
same,AC50,[13],inconclusive: 100 µM
O=S(=O)(O)C(F)(F)C(F)(F)C(F)(F)C(F)(F)C(F)(F)C(F)(F)C(F)(F)C(F)(F)F,AC50,[14],active: 25 µM and active: 42.3 µM and active: 42.2 µM
same,AC50,[1],inconclusive: 1.13 nM and inconclusive: 19.6 µM and active: 33.8 µM
same,AC50,[12],active: 42.5 µM
same,AC50,[2],active: 10.6 µM and active: 21.2 µM
same,AC50,[5],inconclusive: 39.6 µM and inconclusive: 171 µM
same,AC50,[6],inconclusive: 3.84 µM
same,AC50,[3],inconclusive: 0.0359 µM
same,AC50,[15],inconclusive: 20 µM
same,outcome,[7],inactive
same,outcome,[8],inactive
same,outcome,[16],inactive
same,AC50,[13],inconclusive: 183 µM
C=C(C)[C@H]1Cc2c(ccc3c2O[C@@H]2COc4cc(OC)c(OC)cc4[C@@H]2C3=O)O1,AC50,[4],inconclusive: 1.21 µM
same,AC50,[17],active: 9.92 µM
same,AC50,[6],inconclusive: 3.21 µM
same,AC50,[3],inconclusive: 20 µM
same,outcome,[18],inactive
same,outcome,[19],inactive
same,outcome,[9],inactive
same,outcome,[10],inactive
O=C(CBr)c1ccc(O)cc1,outcome,[17],inactive
C=CCC1=C(C)[C@@H](OC(=O)[C@@H]2[C@@H](C=C(C)C)C2(C)C)CC1=O,AC50,[11],active: 16.6 µM
same,AC50,[14],inconclusive: 2.53 µM
same,AC50,[2],inconclusive: 128 µM
same,outcome,[6],inactive
same,outcome,[15],inactive
same,AC50,[8],inconclusive: 0.00298 µM
same,outcome,[16],inactive

# An excerpt of these results, as tab-separated lines:
compound	measurement	setting	value
CCCCN(CC)c1c([N+](=O)[O-])cc(C(F)(F)F)cc1[N+](=O)[O-]	AC50	[2]	inconclusive: 103 µM
CC1(C)[C@H](C(=O)O[C@H](C#N)c2cccc(Oc3ccccc3)c2)[C@@H]1C=C(Br)Br	AC50	[10]	inconclusive: 50 µM
O=P(Oc1ccccc1)(Oc1ccccc1)Oc1ccccc1	AC50	[12]	inconclusive: 10.6 µM
O=S(=O)(O)C(F)(F)C(F)(F)C(F)(F)C(F)(F)C(F)(F)C(F)(F)C(F)(F)C(F)(F)F	AC50	[14]	active: 25 µM and active: 42.3 µM and active: 42.2 µM
same	outcome	[8]	inactive
C=C(C)[C@H]1Cc2c(ccc3c2O[C@@H]2COc4cc(OC)c(OC)cc4[C@@H]2C3=O)O1	AC50	[4]	inconclusive: 1.21 µM
same	outcome	[9]	inactive
O=C(CBr)c1ccc(O)cc1	outcome	[17]	inactive

# From PubChem BioAssay (EPA / NIEHS)
